# From PMC10624597
# Sequences of proteins named here, by UniProt entry; tags and fusion partners are left off.
# UniProt P05556: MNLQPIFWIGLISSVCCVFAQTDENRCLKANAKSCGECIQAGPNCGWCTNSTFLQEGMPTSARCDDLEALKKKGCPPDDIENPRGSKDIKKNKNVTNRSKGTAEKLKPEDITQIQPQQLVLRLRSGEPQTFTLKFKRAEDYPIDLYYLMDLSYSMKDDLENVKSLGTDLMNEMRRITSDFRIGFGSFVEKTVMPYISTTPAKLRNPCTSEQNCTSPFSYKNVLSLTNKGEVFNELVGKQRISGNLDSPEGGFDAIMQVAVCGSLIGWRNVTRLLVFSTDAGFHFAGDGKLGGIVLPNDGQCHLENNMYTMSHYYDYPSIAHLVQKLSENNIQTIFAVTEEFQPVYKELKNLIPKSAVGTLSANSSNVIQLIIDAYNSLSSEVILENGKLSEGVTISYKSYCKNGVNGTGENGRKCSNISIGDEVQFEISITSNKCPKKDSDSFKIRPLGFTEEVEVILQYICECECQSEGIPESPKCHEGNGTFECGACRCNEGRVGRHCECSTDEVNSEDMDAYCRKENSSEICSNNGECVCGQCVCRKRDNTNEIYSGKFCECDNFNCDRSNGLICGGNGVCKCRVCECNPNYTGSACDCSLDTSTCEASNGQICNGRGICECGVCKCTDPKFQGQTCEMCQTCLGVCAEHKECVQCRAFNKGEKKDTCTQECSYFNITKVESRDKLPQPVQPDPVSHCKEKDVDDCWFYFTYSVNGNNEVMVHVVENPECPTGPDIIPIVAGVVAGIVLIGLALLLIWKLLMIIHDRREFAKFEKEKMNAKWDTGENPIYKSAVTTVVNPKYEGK
# UniProt Q12809: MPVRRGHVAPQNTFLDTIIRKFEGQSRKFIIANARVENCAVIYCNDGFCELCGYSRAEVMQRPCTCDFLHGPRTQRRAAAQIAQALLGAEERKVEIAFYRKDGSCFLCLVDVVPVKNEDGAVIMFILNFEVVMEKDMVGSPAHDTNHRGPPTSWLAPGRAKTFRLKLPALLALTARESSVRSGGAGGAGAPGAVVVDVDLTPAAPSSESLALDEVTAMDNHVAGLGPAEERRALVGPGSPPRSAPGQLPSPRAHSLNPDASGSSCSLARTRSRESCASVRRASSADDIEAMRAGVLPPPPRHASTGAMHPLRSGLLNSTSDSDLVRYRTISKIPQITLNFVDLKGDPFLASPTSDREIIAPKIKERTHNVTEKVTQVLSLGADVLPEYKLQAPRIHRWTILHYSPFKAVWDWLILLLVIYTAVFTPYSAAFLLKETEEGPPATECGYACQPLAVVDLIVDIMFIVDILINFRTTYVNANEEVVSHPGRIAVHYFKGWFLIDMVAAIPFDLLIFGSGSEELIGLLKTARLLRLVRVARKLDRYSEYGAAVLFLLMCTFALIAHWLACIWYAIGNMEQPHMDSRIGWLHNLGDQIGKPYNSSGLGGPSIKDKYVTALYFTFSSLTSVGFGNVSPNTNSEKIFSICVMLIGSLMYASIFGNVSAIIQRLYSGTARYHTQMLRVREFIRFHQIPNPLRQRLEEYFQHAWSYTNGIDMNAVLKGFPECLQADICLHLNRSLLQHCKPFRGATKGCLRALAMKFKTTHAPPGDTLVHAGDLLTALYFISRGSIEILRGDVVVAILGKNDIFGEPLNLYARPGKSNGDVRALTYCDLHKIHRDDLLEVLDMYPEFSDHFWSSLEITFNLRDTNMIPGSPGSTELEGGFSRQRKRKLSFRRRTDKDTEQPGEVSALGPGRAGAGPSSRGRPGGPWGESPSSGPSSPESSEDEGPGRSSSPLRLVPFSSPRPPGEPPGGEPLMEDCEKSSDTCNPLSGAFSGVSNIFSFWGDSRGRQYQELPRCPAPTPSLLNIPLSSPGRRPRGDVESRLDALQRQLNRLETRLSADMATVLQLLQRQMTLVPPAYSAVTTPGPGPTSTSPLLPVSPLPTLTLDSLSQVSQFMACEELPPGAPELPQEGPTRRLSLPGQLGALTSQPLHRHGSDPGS
# Results are given in words; binding and its absence hold for the method and conditions named. In cells and extracts the contact can be indirect. Some binding calls cover weakened binding; strength is not graded here.
# Experiments:
# [1] = biological target: β1 integrin (human (endogenous in HEK 293, PANC-1, HCT116)) (UniProt P05556); assay: co-IP; HEK–hERG1 cells seeded on BSA-coated dishes instead of FN; time course; IP with TS2/16
# [2] = biological target: β1 integrin (human (endogenous in HEK 293, PANC-1, HCT116)) (UniProt P05556); assay: co-IP; HEK 293 cells stably expressing hERG1 (wild type, K525C or R531C), starved overnight, seeded on FN, T0 to T300; 1% NP-40 lysate (150 mM NaCl, 50 mM Tris–HCl pH 8, 5 mM EDTA), 1.5 mg protein; IP with the anti-β1 antibody TS2/16 overnight at 4°C, Western blot; also cells stimulated with TS2/16 and treated with PTX, gallein, LY294002 or scDb–hERG1–β1 (20 μg/ml)
# [3] = biological target: β1 integrin (human (endogenous in HEK 293, PANC-1, HCT116)) (UniProt P05556); assay: co-IP; HEK–hERG1–Tr and HEK–KCNE1–hERG1–Tr cells seeded on FN at T90; IP with the TS2/16 antibody
# [4] = biological target: β1 integrin (human (endogenous in HEK 293, PANC-1, HCT116)) (UniProt P05556); assay: condition: only cells treated overnight with PTX (100 ng/ml); co-IP; HEK–hERG1 cells treated overnight with PTX (100 ng/ml) and seeded on FN for 90 min; co-IP of Gαi3 and β1 integrin
# [5] = biological target: hERG1 potassium channel (K+ channel encoded by the human ether-à-go-go-related gene 1) (human) (UniProt Q12809); assay: co-IP; HEK–hERG1 cells seeded on FN at T90; co-IP between Gαi3 and hERG1; precipitating antibody not stated for this panel
# [6] = biological target: β1 integrin (human (endogenous in HEK 293, PANC-1, HCT116)) (UniProt P05556); assay: co-IP; PANC-1 cells seeded on FN, time course; IP with the TS2/16 antibody; also cells treated with PTX, scDb–hERG1–β1 (20 μg/ml) or E4031 (40 μM)
# [7] = biological target: β1 integrin (human (endogenous in HEK 293, PANC-1, HCT116)) (UniProt P05556); assay: co-IP; HCT116 cells seeded on FN, time course; IP with the TS2/16 antibody; also cells treated with PTX, scDb–hERG1–β1 (20 μg/ml) or E4031 (40 μM)
substance,measurement,setting,value
hERG1 potassium channel (K+ channel encoded by the human ether-à-go-go-related gene 1) (from UniProt Q12809 1-1159),binding,[1],no binding (condition: cells seeded on BSA instead of FN)
same,binding,[2],binds
"hERG1 transiently transfected in HEK 293 cells (HEK–hERG1–Tr, HEK–KCNE1–hERG1–Tr) (from UniProt Q12809 1-1159)",binding,[3],binds
Gαi3 (from UniProt P08754 1-354),binding,[4],no binding
same,binding,[2],binds
same,binding,[5],no binding
"hERG1, endogenous in PANC-1 and HCT116 cancer cells (from UniProt Q12809 1-1159)",binding,[6],binds
same,binding,[7],binds
